Measured values reported in PubChem BioAssay AID2685 (National Center for Advancing Translational Sciences (NCATS), 2010).
The list shows a part of the results. Shown are side measurements of this screen, not its main read-out; they come without a call. The list favours compounds with an active or inconclusive main result. The note in brackets gives the kind of curve behind each potency; many fits are weak.

Assay: qHTS Assay for Lipid Storage Modulators in Drosophila S3 Cells;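 for cell number change: cells counted by Cell Tracker Red CMTPX staining in the red channel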
Conditions: BODIPY lipid droplet fluorescence, 18-24 h; for cell number change: measured here: cell count max response, cells fed with added oleic acid
How it was run: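 Laser-scanning cytometry quantifies lipid droplet accumulation (500–530 nm total intensity; droplet/cell object ratio) in oleic acid-fed (400 uM added) Drosophila S3 cells treated with a concentration series. 20 uM Triacsin C defined 100% inhibition.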

[1] = measured here: cell number channel AC50, cells fed with added oleic acid
[2] = measured here: lipid fluorescence (Fed channel) AC50, cells fed with added oleic acid

Compound | cell number change [%] | AC50 [1] | AC50 [2]
Cc1ccc(C2=NN(C(=O)CCl)C(c3ccco3)C2)o1 (stereo unspecified) | -16.5 | 7.31 µM [falling, single point] | 6.51 µM [falling, partial curve]
Cc1ccc(OCCn2cc(C=O)c3ccccc32)cc1 | -23.9 |  | 
Oc1cccc(NC(=S)N=Nc2c(O)[nH]c3ccc(Br)cc23)c1 | -22 |  | 
CCOc1ccccc1NC(=O)CCNS(=O)(=O)c1ccc2[nH]c(=O)oc2c1 | 5.6 |  | 29.1 µM [falling, single point]
O=C(CCCC(=O)N(c1ccc(F)cc1)C(C(=O)NC1CCCC1)c1ccc(O)cc1)Nc1ccccn1 (stereo unspecified) | 20.3 |  | 
COc1ccc(/C=N/n2cnn(Cc3ccccc3Cl)c2=S)cc1OC | -52 | 29.1 µM [falling, single point] | 29.1 µM [falling, single point]
O=C(/C=C/c1ccccc1)C1=C(O)C(=O)N(CCO)C1c1ccccc1[N+](=O)[O-] (stereo unspecified) | -19.8 |  | 
Nc1nc(SCC(=O)NCc2ccccc2)[nH]c(=O)c1NC(=O)c1ccccc1F | -0.89 | 0.092 µM [rising, full curve, poor fit] | 
O=C(NC(N1CCOCC1)C(Cl)(Cl)Cl)c1ccco1 (stereo unspecified) | -21.2 |  | 16.4 µM [falling, partial curve, poor fit]
O=C(Nc1cc(S(=O)(=O)N2CCOCC2)ccc1Cl)C1CCC1 | -75 | 29.1 µM [falling, single point] | 
COc1ccccc1OCC(=O)Nc1ccccc1C(=O)N1CCCC1 | -1.32 |  | 
Cc1nnc2n1N=CC=C(C(C)(C)C)S2 | -28.7 | 4.11 µM [falling, full curve, poor fit] | 0.0651 µM [falling, full curve, poor fit]
CC(NC(=O)Cc1cccs1)c1ccncc1 (stereo unspecified) | -22.5 |  | 0.13 µM [rising, full curve, poor fit]
COC(=O)c1c(NC(=O)COC(=O)[C@@H](NS(=O)(=O)c2ccc(C)cc2)C(C)C)sc2c1CCC2 | -58 | 29.1 µM [falling, partial curve, poor fit] | 
CC(C)(C)C(=O)Nc1nnc(-c2ccncc2)o1 | -1.81 |  | 0.0058 µM [falling, full curve, poor fit]
COc1cc(/C=C2/SC(=S)N(CC(=O)O)C2=O)ccc1OC(=O)c1ccco1 | -89.6 |  | 
CCN1CCN(c2cc(C)c3cc(NC(=O)CCC(=O)N4CCN(c5ccccc5OC)CC4)ccc3n2)CC1 | 27 | 2.06 µM [rising, partial curve] | 1.16 µM [rising, full curve]
Cc1cc(NC(=O)c2ccc(NC(=O)C(C)C)cc2)no1 | -20.3 |  | 2.91 µM [rising, single point]
COc1cc(CC(=O)OCC(=O)c2c[nH]c3ccccc23)cc(OC)c1OC | -17.7 |  | 
CC(C)Oc1ccc(NC(=O)Oc2ccccc2)cc1 | 5.09 |  | 5.8 µM [rising, partial curve, poor fit]
CCOc1ccc(/C=C/C(=O)N(CC)CC(=O)Nc2ccc3c(c2)OCCO3)cc1OC | 1.2 |  | 
Cc1coc2cc3oc(=O)c(CCC(=O)NCCCn4ccnc4)c(C)c3cc12 | 24.3 |  | 

Nothing new here: an excerpt of the list.
Compound | cell number change [%] | AC50 [1] | AC50 [2]
Cc1nnc2n1N=CC=C(C(C)(C)C)S2 | -28.7 | 4.11 µM [falling, full curve, poor fit] | 0.0651 µM [falling, full curve, poor fit]
CC(NC(=O)Cc1cccs1)c1ccncc1 (stereo unspecified) | -22.5 |  | 0.13 µM [rising, full curve, poor fit]
COC(=O)c1c(NC(=O)COC(=O)[C@@H](NS(=O)(=O)c2ccc(C)cc2)C(C)C)sc2c1CCC2 | -58 | 29.1 µM [falling, partial curve, poor fit] | 
CC(C)(C)C(=O)Nc1nnc(-c2ccncc2)o1 | -1.81 |  | 0.0058 µM [falling, full curve, poor fit]

The list continues:

Compound | cell number change [%] | AC50 [1] | AC50 [2]
CCC1CCCCN1CCCNC(=O)Cn1cc2c(n1)-c1c(oc(C(=O)N3CCCC3)c1C)CC2 (stereo unspecified) | 42.5 | 29.1 µM [rising, single point] | 
Cc1cc(C2=NNC(=Nc3ccccc3)SC2)c(C)n1C | 37.8 |  | 4.11 µM [falling, single point]
COC(=O)c1ccc(OC(=O)N2CCOCC2)cc1 | 9.49 |  | 29.1 µM [rising, single point]
CCN(C(=O)COC(=O)c1oc2ccc(OC)cc2c1C)C1CCS(=O)(=O)C1 (stereo unspecified) | -27.5 |  | 
O=C(CN1C(=O)C2C3C=CC(C3)C2C1=O)NCC1COc2ccccc2O1 (stereo unspecified) | 1.66 |  | 3.66 µM [rising, full curve]
O=C(COC(=O)c1cccc(Br)c1)NC(=O)NC1CCCC1 | 25.3 |  | 
COc1cccc(N2C(=O)c3ccncc3C2=O)c1 | -16.9 | 0.116 µM [falling, full curve, poor fit] | 
COc1cccc(S(=O)(=O)NCc2ccc(C(=O)N3CCN(c4ccccc4OC)CC3)cc2)c1 | -14 |  | 29.1 µM [falling, single point]
CCOC(=O)c1ccc(NC(=S)NNC(=O)COC)cc1 | 18.7 |  | 1.3 µM [falling, single point]
C/C(=N\Nc1ccc(Cl)c(Cl)c1)c1ccc(-n2ccnc2)cc1 | -4.31 |  | 0.184 µM [rising, full curve, poor fit]
COc1ccccc1CNC(=O)c1cc(C)nc2ccccc12 | -10.5 |  | 
Cc1ccc(C(C)C)cc1OCC(=O)NC1CCCCCCC1 | -51.2 | 18.4 µM [falling, single point] | 29.1 µM [falling, single point]
O=C(CCC(=O)Nc1ccc(F)cc1)N/N=C/c1cccnc1 |  |  | 0.708 µM [rising, full curve]
COc1cc(CC(NC(C)=O)C(=O)NC2CCN(C(=O)Nc3ccccc3C)CC2)cc(OC)c1 (stereo unspecified) | -3.85 |  | 
Cc1ccccc1C(=O)c1cccn1CC(=O)NCc1cccc(Cl)c1 |  |  | 0.58 µM [rising, single point]
COc1cccc(CN(Cc2ccco2)S(=O)(=O)c2ccc(S(=O)(=O)NCc3ccccc3)cc2)c1OC | -7.41 |  | 29.1 µM [falling, single point]
CCc1nn(CCCC(=O)NC(C)c2ccccc2)c(=O)c2cc3occc3n12 (stereo unspecified) | 1.15 |  | 6.51 µM [rising, single point]
OC(CNCc1ccc(F)cc1)(c1ccccc1)c1ccc(F)cc1 (stereo unspecified) | 22.4 | 0.326 µM [rising, full curve] | 
Cc1nccn1CCOc1ccc(Cl)cc1 | 5.57 |  | 29.1 µM [rising, single point]
C#CCSc1nnc(CSc2nc3ccccc3s2)n1-c1ccccc1 | 19.6 | 1.46 µM [rising, partial curve, poor fit] | 
O=C(NC1CC2CCCC(C1)N2C(=O)NCc1ccccc1)C1CC1 (stereo unspecified) | 0.537 |  | 
CCc1n[nH]c(=O)n1Cn1c(CC)n[nH]c1=O | -91.5 | 29.1 µM [falling, single point] | 

Compound | cell number change [%] | AC50 [1] | AC50 [2]
CC(Oc1ccccc1)C(=O)N(CCC1=CCCCC1)c1c(N)n(Cc2ccccc2)c(=O)[nH]c1=O (stereo unspecified) | -13.6 |  | 29.1 µM [falling, single point]
Nc1c(C(=O)NCc2ccco2)nnn1CC(=O)Nc1ccccc1 | 3.91 |  | 
CC1(C)N=C(C(=O)c2ccccc2)N(O)C1(C)O (stereo unspecified) | -12.4 |  | 0.116 µM [rising, full curve, poor fit]
COc1ccc(CN(C)C(=O)Cc2ccsc2)c(OC)c1OC | 3.85 |  | 5.17 µM [falling, single point]
O=C(CN1C(=O)c2cccc3cccc1c23)NCc1ccc2c(c1)OCO2 |  |  | 23.1 µM [falling, single point]
Cc1cc([N+](=O)[O-])ccc1NC(=O)c1ccc(NC(=O)C(C)C)cc1 | -42.1 |  | 
O=C(NC(=S)Nc1ccccc1Cl)c1cncc(C#Cc2ccccc2)c1 | 3.07 |  | 1.84 µM [rising, partial curve, poor fit]
Cc1ccc(O)c(C(=O)c2cc(C(=O)NCCc3ccccc3)c(=O)n(CCc3ccccc3)c2)c1 | 0.403 |  | 0.461 µM [rising, partial curve]
O=C(NCC(=O)N1CCCCCCC1)c1ccc(Cl)cc1 | -23.6 |  | 5.17 µM [falling, partial curve]
COc1cc(SC)ccc1C(=O)N1CC(C)OC(C)C1 (stereo unspecified) | 4.21 |  | 18.4 µM [falling, single point]
O=c1[nH]c2ccccc2nc1NCCN1CCOCC1 | 40.3 | 11.6 µM [rising, single point] | 
COc1ccc(C(=O)Nc2ccc(NC(=O)Cc3ccccc3)cn2)cc1 | 21.6 |  | 4.11 µM [rising, full curve]
CC(C)c1ccc(S(=O)(=O)N2CCN(CC(=O)c3ccc(O)c(O)c3)CC2)cc1 | 20.3 |  | 5.17 µM [rising, partial curve]
CCCOC(=S)Nc1ccccc1 | -1.75 | 0.0651 µM [rising, full curve] | 
Cc1ccc(-c2cc(Cc3ccccn3)c(=O)[nH]n2)cc1 | 30.7 | 4.11 µM [rising, partial curve, poor fit] | 1.64 µM [rising, partial curve, poor fit]
O=C(NCC1CCCCC1)C1CCN(C(=O)NC2CCCCC2)CC1 | -3.62 |  | 0.82 µM [falling, full curve]
COc1cc(NS(=O)(=O)c2ccc3ccccc3c2)c2ncccc2c1 | -20 |  | 
CC(C)(C)c1cc(CCC(=O)NNC(=S)NC(=O)c2ccccc2)cc(C(C)(C)C)c1O | -51.7 | 32.6 µM [falling, single point] | 29.1 µM [falling, single point]
CCOC(=O)C1=C(C)N(C)C(=S)NC1c1ccc(Cl)cc1 (stereo unspecified) | -26.3 |  | 29.1 µM [falling, single point]
Cc1csc(NC(=O)CSc2nnc(CCNC(=O)c3ccc(Cl)c(Cl)c3)n2C)n1 | 54.9 | 4.61 µM [rising, full curve, poor fit] | 
COc1cc(F)c(C2=CC(=O)C[C@H](c3ccc(F)cc3)C2)cc1F |  |  | 0.58 µM [falling, partial curve]
